PubChem BioAssay AID1053208 | Peter MacCallum Cancer Centre, 2014

Screen: 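Synthetic lethal interactions between gene loss and doxorubicin in osteosarcoma cells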 (primary screen)
System: mouse osteosarcoma cells, early-passage culture from an engineered mouse model of fibroblastic bone tumour
Knock-down reagent: siRNA pool against mouse genes, 40 nM
Timing: about 120 h (48 h before drug, then 72 h with drug)
Challenge: doxorubicin 100 nM for 72 h, roughly 30-40% inhibitory dose
Read-out: 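Viability read as ATP luminescence after 72 h of 100 nM doxorubicin or none, duplicate wells averaged, scaled to non-targeting siRNA, then expressed as robust z-scores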
Reading the numbers: viability z-score with doxorubicin: higher = more viable cells under doxorubicin; viability z-score without drug: higher = more viable cells with knock-down alone
Hit rule: 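Called active if knock-down leaves viability unchanged without drug (z within -2 to 2) but lowers it with doxorubicin (z at or under -2)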
The whole screen tested about 17,000 reagents; below is a random part of them. Of all reagents, 788 (4.7%) got an active call. 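Calls rest on z-score classes alone; an extra cut-off of viability at most 70% of control was not applied to them.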 Entries without a mark were called inactive. Some reagents were tested in more than one well and are listed for each. Further read-outs or replicates are left out here.

gene knocked down | combined z-score class | viability z-score with doxorubicin | viability z-score without drug
Nsun5 (NOL1/NOP2/Sun domain family, member 5) | no change with or without drug | -0.67 | 0.17
Or2y6 (olfactory receptor family 2 subfamily Y member 6) | no change with or without drug | 1.12 | 1.85
Fam162a (family with sequence similarity 162, member A) | no change with or without drug | -0.67 | 1.18
Spem2 (SPEM family member 2) | no change with or without drug | -0.45 | -1.18
Zwilch (zwilch kinetochore protein) | no change with or without drug | -1.01 | 0.34
Tk2 (thymidine kinase 2, mitochondrial) | no change with or without drug | -0.9 | 0
Grk6 (G protein-coupled receptor kinase 6) | no change with or without drug | 1.57 | 1.18
Bzw2 (basic leucine zipper and W2 domains 2) | no change with or without drug | 0.67 | -0.17
Dgcr8 (DGCR8, microprocessor complex subunit) | no change with or without drug | 0.79 | 0.17
Pou4f3 (POU domain, class 4, transcription factor 3) | no change with or without drug | 1.12 | 1.35
Rps15a (ribosomal protein S15A) | low cell count with and without drug | -8.43 | -7.93
Cst6 (cystatin E/M) | no change with or without drug | 0.45 | 1.52
Isoc2b (isochorismatase domain containing 2b) | no change with or without drug | 0.11 | -1.52
Ehf (ets homologous factor) | no change with or without drug | 0.67 | 1.18
Or51s1 (olfactory receptor family 51 subfamily S member 1) | no change with or without drug | 0 | -0.17
Atp6v1b2 (ATPase, H+ transporting, lysosomal V1 subunit B2) | no change with or without drug | -0.67 | -0.17
Herc3 (hect domain and RLD 3) | no change with or without drug | 0.67 | 1.01
Adrb2 (adrenergic receptor, beta 2) | no change with or without drug | -0.67 | 1.52
Adrb2 (adrenergic receptor, beta 2) | no change with or without drug | 0 | 0.34
4933402J07Rik (RIKEN cDNA 4933402J07 gene) | no change with or without drug | 0.45 | -1.35

Targets above whose target name starts with A or a:
gene knocked down | combined z-score class | viability z-score with doxorubicin | viability z-score without drug
Atp6v1b2 (ATPase, H+ transporting, lysosomal V1 subunit B2) | no change with or without drug | -0.67 | -0.17
Adrb2 (adrenergic receptor, beta 2) | no change with or without drug | -0.67 | 1.52
Adrb2 (adrenergic receptor, beta 2) | no change with or without drug | 0 | 0.34
